In PMC12561426:
These are yes or no findings as the source states them, for the method shown.

Molecular target: NRF2^DBD (human) (UniProt Q16236)
Assay: cross-linking; glutaraldehyde by hanging-drop vapour diffusion, 5-7 uM protein, 15 min (sMafG^DBD) or 45 min (BACH1^DBD), stopped with 250 mM ammonium sulfate, SDS-PAGE with Coomassie; without DNA; both purified

B1: NRF2^DBD (domain or fragment, UniProt Q16236 451-567)
chain: EAHLTRDELRAKALHIPFPVEKIINLPVVDFNEMMSKEQFNEAQLALIRDIRRRGKNKVAAQNCRKRKLENIVELEQDLDHLKDEKEKLLKEKGENDKSLHLLKKQLSTLYLEVFSM
For B1, the binding was “no binding”.
